# Assay results reported in paper PMC11003700.
# Protein sequences, listed by entry. Tags and fused reporters are not part of them.
# UniProt P04198: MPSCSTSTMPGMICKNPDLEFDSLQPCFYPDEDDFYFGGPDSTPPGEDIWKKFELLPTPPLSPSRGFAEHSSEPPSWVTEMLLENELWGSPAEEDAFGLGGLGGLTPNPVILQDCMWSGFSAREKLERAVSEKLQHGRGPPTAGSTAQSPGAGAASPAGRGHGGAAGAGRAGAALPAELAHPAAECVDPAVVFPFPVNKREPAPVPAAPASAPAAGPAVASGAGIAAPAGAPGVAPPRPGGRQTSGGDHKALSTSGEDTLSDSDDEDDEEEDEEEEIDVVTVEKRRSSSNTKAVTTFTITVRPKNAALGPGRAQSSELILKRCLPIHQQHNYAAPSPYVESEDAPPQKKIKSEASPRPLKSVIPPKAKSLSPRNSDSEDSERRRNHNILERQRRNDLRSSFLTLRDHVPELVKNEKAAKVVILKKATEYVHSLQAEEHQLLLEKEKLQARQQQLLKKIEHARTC
# UniProt P61244: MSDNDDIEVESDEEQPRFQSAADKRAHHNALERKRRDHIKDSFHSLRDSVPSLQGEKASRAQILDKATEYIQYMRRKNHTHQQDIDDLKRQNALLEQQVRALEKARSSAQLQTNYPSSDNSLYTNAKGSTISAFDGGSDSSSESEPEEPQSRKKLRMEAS
# UniProt Q02880: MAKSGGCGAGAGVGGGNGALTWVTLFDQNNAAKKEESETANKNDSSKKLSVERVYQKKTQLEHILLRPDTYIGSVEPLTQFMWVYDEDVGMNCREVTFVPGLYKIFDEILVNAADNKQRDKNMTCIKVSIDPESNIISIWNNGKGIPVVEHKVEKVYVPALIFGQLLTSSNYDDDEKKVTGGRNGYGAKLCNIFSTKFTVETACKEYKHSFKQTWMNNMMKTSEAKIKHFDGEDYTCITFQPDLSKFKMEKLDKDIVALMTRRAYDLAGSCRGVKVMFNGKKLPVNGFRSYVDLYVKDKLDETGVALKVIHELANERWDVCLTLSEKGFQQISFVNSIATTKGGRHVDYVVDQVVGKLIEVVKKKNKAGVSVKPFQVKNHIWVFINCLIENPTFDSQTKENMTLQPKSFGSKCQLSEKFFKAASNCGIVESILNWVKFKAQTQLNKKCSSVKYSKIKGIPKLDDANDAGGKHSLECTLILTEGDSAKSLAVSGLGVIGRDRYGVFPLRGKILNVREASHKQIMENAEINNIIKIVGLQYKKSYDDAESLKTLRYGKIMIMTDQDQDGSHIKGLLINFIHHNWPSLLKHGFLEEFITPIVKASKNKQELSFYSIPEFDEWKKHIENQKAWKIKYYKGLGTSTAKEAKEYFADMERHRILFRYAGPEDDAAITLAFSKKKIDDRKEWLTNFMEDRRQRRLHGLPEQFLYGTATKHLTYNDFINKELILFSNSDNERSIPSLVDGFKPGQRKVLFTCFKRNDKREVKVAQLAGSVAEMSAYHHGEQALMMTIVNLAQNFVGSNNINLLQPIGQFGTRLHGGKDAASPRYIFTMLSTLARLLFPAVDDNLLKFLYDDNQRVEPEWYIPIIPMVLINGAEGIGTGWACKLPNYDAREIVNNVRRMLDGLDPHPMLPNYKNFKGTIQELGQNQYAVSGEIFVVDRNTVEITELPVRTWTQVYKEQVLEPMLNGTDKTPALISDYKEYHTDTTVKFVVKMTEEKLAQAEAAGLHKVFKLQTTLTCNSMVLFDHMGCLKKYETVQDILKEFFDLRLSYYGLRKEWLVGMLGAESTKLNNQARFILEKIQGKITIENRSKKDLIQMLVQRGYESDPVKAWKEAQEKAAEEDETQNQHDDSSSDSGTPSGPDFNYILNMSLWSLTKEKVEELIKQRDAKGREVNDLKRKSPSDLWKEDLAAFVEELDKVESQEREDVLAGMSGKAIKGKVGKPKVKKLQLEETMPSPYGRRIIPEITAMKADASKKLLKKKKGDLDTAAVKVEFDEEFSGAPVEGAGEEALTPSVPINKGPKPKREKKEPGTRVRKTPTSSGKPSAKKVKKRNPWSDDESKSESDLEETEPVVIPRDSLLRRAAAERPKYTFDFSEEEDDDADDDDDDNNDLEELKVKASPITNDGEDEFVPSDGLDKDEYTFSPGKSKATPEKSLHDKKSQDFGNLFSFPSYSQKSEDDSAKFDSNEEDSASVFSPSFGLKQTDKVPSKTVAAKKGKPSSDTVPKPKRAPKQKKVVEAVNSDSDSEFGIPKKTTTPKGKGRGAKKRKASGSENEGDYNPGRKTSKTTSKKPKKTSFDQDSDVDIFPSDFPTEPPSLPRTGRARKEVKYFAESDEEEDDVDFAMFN
# UniProt Q96KQ7: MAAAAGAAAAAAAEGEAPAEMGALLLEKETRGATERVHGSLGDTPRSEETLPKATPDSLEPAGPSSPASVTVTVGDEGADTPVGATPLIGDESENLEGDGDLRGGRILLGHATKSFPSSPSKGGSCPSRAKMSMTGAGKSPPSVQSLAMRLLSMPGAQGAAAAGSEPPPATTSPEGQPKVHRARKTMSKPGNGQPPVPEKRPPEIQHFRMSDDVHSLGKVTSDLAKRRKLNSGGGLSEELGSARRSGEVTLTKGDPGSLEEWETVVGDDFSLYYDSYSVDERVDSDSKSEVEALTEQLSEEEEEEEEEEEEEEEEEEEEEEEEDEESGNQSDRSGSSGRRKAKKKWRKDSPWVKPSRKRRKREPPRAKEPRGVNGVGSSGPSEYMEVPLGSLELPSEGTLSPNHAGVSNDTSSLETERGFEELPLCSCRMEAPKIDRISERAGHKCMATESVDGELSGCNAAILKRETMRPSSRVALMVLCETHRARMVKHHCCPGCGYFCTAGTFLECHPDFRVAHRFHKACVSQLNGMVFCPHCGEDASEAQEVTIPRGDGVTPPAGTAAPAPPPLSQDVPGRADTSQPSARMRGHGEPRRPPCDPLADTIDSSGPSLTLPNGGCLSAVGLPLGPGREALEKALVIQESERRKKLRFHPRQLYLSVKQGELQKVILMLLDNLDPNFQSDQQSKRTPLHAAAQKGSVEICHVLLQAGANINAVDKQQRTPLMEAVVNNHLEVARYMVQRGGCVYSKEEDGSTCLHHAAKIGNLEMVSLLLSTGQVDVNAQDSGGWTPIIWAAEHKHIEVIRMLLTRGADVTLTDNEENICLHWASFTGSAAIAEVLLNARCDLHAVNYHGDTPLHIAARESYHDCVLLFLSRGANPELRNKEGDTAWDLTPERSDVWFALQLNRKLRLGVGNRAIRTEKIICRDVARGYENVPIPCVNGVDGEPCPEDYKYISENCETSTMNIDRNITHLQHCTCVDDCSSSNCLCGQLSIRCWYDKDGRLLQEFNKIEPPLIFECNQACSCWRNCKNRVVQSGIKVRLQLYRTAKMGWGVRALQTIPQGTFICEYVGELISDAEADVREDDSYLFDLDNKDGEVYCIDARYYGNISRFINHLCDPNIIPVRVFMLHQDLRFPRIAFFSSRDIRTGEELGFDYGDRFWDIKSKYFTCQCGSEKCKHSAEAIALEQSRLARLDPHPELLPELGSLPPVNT
# No constants are given. Whether binding was seen depends on the method and setting. In cells and extracts the contact can be indirect. Here binding means that the protein was enriched with, or labelled near, the bait; the list need not be complete.
# Target: MYCN (N-Myc) (human (endogenous in IMR32)) (UniProt P04198)
# Assay: affinity purification with mass spectrometry; endogenous MYCN immunoprecipitated from IMR32 lysate (20 mg) with two different MYCN antibodies or normal IgG on Dynabeads M-280 sheep anti-mouse IgG; lysis buffer 50 mM Tris-HCl pH 7.5, 137 mM NaCl, 1 mM DTT, 1 mM EDTA, 0.5% Triton X-100; 4°C, 4 h; no Benzonase; differentially pulled-down gel bands sequenced by mass spectrometry
row,Substance,binding
1,TRRAP (from UniProt Q9Y4A5 1-3859),binds
2,MAX (from UniProt P61244 1-160),binds
3,topoisomerase IIB (TOP2B) (from UniProt Q02880 1-1626) (enzyme),binds
4,"G9a (histone methyltransferase, also known as EHMT2) (from UniProt Q96KQ7 1-1210) (enzyme)",binds
